We go through one compound from PMC9688530, “Development of Ic-ELISA and Colloidal Gold Lateral Flow Immunoassay for the Determination of Cypermethrin in Agricultural Samples” (Biosensors, 2022).

A short description of data set [1]: recovery in spiked samples by ic-ELISA. The settings on record: for Test Value ±SD: n = 3. (An ELISA detects its analyte on a solid surface through an enzyme-linked reagent.)
[2] abbreviates: Romaine Lettuce, spiked 0.1 μg/g.
[3] abbreviates: Romaine Lettuce, spiked 0.2 μg/g.
Setting [4] is: Romaine Lettuce, spiked 0.4 μg/g.

With `CC1(C)C(C=C(Cl)Cl)C1C(=O)OC(C#N)c1cccc(Oc2ccccc2)c1` (stereo not drawn) [CYP, Cypermethrin], the results for the limit of quantification in “spiked samples by LFIA” (cabbage), in the data set “spiked samples by LFIA” (romaine lettuce) and in the data set “spiked samples by LFIA” (tomato) were 1.5 µg/g, 3 µg/g and 1.5 µg/g, respectively. The Recovery in data set [1] (Cabbage, spiked 0.1 μg/g) came out at 78.8%; in data set [1] (Cabbage, spiked 0.2 μg/g) it was 80.3%; in data set [1] (Cabbage, spiked 0.4 μg/g), 87.3%; in data set [1] (setting [2]), 81.5%; in data set [1] (setting [3]), 85.2%; in data set [1] (setting [4]), 87.6%. In addition, the Recovery was 81.4% in data set [1] (Tomato, spiked 0.1 μg/g); 80.9% in data set [1] (Tomato, spiked 0.2 μg/g); 82.6% in data set [1] (Tomato, spiked 0.4 μg/g). For the same compound, the “Test Value ±SD” value in data set [1] (Cabbage, spiked 0.1 μg/g) is recorded as 78.8 ± 1.0 ng/g; in data set [1] (Cabbage, spiked 0.2 μg/g), 160.6 ± 5.2 ng/g; in data set [1] (Cabbage, spiked 0.4 μg/g) it was 349.2 ± 1.4 ng/g; in data set [1] (setting [2]), 81.5 ± 3.8 ng/g; in data set [1] (setting [3]) it was 170.4 ± 3.8 ng/g; in data set [1] (setting [4]), 350.4 ± 13.2 ng/g. Moreover, the “Test Value ±SD” value is recorded as 81.4 ± 1.8 ng/g in data set [1] (Tomato, spiked 0.1 μg/g); 161.8 ± 4.9 ng/g in data set [1] (Tomato, spiked 0.2 μg/g); 330.4 ± 12.1 ng/g in data set [1] (Tomato, spiked 0.4 μg/g).
